Measurements reported in the supplement of paper PMC10849652.
The list shows a part of the results.

By UniProt entry, the sequences of proteins in these tests, tags left out. Where a name states a change or a piece, a line headed by the entry shows the natural chain unless it says otherwise.
UniProt P12956: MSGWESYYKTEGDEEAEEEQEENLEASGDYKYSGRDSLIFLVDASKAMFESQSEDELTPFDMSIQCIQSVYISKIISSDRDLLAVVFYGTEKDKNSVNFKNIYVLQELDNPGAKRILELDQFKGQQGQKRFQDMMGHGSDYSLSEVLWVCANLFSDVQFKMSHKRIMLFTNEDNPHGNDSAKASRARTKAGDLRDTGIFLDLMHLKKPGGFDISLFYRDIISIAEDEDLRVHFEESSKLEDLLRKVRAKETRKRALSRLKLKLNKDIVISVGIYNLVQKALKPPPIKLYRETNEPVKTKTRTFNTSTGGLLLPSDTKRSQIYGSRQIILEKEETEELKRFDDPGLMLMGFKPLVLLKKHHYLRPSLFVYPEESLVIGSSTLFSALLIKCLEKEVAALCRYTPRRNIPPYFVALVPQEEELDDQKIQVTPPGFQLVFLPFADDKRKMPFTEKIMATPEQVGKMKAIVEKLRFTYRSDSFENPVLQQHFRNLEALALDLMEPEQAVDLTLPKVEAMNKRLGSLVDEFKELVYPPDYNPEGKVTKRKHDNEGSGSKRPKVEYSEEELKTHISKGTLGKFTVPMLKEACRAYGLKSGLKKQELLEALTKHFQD
UniProt Q9HBF4: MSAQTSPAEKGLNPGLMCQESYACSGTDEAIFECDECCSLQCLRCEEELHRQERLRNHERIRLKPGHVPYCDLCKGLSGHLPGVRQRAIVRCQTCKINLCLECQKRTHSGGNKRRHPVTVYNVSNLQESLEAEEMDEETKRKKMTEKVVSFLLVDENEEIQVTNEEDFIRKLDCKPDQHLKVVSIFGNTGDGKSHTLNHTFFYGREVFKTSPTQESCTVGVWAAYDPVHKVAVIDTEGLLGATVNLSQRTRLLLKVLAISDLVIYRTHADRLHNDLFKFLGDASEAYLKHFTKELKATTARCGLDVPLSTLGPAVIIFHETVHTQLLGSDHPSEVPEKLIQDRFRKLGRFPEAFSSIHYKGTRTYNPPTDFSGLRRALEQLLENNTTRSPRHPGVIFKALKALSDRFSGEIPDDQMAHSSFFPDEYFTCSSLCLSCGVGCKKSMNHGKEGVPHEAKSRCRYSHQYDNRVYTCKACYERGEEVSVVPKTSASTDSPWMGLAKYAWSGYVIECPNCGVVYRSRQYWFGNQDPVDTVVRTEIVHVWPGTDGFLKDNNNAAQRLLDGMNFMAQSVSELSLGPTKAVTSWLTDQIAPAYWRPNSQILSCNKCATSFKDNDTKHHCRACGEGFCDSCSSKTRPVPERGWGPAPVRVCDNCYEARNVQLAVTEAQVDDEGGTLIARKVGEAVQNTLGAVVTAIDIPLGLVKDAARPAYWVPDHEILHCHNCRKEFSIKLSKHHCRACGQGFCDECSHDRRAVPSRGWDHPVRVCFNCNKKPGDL
UniProt P62699: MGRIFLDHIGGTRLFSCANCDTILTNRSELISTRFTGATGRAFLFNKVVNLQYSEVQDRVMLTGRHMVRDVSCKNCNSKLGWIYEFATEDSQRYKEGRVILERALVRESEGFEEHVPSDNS
UniProt O43298: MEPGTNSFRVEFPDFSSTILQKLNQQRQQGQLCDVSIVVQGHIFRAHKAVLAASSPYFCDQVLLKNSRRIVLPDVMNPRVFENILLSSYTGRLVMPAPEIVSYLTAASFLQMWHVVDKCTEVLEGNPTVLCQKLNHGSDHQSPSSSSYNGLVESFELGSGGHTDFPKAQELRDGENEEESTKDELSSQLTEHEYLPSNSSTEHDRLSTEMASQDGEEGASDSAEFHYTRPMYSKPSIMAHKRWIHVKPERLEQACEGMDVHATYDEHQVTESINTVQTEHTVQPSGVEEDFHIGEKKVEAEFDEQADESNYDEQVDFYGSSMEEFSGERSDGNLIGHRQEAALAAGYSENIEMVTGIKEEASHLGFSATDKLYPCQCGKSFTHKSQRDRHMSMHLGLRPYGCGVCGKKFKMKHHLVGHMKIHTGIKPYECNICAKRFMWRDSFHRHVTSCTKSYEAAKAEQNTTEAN
UniProt Q86U90: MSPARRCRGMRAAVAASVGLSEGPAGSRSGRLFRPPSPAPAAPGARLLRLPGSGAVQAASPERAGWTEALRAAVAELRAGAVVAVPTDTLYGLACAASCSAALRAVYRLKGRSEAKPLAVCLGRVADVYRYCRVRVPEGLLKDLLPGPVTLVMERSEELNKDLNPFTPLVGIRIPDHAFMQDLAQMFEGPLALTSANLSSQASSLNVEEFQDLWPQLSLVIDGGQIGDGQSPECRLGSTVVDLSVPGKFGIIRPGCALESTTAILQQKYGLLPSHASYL
UniProt Q8IZN3: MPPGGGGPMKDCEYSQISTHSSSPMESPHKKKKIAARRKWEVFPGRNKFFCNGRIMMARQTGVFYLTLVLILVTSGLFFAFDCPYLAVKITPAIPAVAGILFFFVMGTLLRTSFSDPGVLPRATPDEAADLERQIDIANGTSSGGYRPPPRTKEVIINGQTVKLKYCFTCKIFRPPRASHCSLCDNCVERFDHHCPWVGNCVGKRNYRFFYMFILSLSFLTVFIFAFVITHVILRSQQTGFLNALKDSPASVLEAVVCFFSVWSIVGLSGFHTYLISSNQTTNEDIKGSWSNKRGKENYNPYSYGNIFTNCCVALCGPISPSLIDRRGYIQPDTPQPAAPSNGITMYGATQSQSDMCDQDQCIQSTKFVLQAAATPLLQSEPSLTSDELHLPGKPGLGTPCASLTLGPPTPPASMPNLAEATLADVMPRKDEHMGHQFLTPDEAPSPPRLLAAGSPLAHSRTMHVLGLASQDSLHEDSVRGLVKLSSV
UniProt P52747: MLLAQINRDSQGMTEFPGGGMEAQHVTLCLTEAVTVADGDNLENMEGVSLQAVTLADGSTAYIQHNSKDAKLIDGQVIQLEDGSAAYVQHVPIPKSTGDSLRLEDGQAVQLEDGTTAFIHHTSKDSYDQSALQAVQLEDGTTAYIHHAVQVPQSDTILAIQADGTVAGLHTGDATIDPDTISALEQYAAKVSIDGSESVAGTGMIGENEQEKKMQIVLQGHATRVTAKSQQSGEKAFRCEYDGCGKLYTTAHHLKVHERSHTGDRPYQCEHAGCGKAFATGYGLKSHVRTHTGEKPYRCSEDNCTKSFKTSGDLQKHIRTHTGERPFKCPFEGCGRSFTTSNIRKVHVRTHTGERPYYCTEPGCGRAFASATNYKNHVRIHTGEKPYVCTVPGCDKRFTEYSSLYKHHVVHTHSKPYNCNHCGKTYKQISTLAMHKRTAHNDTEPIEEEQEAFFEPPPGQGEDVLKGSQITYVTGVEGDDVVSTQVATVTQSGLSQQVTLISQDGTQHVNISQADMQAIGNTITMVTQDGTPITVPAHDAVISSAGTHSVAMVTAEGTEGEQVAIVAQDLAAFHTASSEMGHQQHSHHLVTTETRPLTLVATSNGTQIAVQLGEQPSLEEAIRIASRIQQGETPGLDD
UniProt P16989, whole entry, looked up: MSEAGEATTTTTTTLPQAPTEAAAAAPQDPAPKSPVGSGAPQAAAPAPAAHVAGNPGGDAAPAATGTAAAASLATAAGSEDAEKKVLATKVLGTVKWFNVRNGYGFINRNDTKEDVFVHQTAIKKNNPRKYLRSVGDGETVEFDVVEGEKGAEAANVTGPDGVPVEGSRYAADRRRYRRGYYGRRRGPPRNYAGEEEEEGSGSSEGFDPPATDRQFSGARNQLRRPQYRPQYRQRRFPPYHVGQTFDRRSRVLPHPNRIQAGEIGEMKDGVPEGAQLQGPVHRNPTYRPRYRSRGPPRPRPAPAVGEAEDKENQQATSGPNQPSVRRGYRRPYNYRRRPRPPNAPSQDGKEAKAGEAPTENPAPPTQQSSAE
UniProt Q9ULJ6: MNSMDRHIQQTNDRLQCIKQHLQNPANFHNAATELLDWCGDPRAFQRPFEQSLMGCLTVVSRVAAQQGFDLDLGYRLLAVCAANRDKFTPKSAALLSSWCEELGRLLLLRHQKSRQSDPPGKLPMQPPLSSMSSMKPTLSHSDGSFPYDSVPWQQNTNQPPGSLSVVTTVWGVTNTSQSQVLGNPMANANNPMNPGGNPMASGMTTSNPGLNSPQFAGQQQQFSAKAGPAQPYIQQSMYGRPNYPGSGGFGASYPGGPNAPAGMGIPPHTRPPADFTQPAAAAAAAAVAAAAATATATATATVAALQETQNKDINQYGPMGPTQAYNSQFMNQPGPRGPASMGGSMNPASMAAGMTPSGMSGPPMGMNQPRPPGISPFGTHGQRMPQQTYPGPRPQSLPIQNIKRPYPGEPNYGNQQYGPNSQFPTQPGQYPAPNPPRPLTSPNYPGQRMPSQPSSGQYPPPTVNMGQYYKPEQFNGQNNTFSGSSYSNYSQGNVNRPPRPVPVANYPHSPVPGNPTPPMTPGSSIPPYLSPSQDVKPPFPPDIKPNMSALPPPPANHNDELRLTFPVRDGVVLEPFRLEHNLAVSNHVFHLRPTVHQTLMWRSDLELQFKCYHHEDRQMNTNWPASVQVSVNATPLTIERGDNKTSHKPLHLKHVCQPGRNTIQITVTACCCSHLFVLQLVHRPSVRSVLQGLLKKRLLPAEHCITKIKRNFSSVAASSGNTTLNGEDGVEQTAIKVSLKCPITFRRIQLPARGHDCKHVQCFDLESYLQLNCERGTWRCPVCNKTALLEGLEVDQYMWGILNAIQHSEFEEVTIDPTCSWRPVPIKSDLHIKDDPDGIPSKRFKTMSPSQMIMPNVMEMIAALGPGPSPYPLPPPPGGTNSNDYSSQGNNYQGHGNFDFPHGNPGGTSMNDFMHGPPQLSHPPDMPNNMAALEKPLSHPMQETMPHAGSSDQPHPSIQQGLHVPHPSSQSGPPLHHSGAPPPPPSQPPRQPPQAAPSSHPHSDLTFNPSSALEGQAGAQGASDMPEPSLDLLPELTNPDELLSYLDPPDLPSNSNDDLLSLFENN
UniProt Q6FIF0: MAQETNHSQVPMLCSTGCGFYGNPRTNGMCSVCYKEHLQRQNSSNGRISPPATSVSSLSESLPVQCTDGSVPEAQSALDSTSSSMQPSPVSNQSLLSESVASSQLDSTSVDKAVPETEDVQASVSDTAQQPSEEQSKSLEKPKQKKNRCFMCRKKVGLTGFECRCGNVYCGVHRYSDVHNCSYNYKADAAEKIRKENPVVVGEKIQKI
UniProt O15498: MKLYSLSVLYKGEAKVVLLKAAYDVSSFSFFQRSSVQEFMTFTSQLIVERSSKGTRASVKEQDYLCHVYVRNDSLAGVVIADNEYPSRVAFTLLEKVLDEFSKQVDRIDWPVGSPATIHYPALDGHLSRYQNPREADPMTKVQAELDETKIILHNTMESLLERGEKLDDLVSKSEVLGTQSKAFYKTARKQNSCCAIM
UniProt Q96GY0: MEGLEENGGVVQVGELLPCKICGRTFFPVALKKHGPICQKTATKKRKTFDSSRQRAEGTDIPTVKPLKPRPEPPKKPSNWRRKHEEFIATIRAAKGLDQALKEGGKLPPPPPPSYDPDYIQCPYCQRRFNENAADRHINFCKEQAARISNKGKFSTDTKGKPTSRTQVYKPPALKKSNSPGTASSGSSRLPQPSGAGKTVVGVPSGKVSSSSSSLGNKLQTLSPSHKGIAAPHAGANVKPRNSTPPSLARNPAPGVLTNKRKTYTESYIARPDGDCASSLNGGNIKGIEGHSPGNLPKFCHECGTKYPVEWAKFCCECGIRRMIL
UniProt O75362: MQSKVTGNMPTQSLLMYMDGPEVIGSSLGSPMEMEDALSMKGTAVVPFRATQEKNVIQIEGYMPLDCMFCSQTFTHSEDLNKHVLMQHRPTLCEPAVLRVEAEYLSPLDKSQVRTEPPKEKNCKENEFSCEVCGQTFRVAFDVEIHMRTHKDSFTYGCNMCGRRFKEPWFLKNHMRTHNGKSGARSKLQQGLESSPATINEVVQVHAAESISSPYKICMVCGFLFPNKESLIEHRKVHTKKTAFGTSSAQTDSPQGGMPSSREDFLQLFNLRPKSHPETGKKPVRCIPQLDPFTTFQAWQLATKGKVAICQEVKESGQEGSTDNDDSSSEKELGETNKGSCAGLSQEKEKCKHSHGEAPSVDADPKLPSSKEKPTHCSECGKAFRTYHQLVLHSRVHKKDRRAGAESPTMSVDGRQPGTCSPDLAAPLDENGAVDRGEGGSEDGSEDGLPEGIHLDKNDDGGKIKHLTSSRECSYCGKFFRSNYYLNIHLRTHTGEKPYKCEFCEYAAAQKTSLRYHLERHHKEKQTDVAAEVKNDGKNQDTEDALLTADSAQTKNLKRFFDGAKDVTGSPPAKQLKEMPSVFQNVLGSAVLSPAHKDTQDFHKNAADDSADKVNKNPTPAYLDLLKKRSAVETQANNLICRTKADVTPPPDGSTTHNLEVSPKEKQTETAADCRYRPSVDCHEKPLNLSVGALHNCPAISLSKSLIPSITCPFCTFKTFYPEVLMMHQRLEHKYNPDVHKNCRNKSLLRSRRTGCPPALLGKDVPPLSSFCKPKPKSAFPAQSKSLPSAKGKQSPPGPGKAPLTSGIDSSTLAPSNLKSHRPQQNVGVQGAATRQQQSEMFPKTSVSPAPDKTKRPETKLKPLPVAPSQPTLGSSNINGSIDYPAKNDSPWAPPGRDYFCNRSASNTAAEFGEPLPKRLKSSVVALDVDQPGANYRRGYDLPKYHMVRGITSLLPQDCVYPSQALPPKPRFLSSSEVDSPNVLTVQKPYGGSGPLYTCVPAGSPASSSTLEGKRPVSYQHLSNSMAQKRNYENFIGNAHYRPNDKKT

Assays:
Test in all cases: log2 fold change, soluble protein after heating vs DMSO (PISA); higher = thermal stabilisation; K562 cells, 10 uM, 30 min; active = over 0.2 and 3.5 SD of the protein, either way, in both replicates (recomputed)
erlotinib = compound: C#Cc1cccc(Nc2ncnc3cc(OCCOC)c(OCCOC)cc23)c1 [erlotinib]
Method in brief: (§1)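 K562 cells (2×10^6 cells/mL) were treated with 10 μM compound for 30 min, and aliquots were heated for 3 min over 48°C-58°C. Pooled aliquots were extracted in PBS with 0.5% NP-40 at 4°C, and the supernatant after 21,000xg for 90 min was measured by TMTpro 16plex LC-MS/MS with channel sums equalised. Reported thermal stability, relative to control samples and from duplicates, is a log2 fold change.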

[1] = compound: C/C(=N\NC(=O)C1=CC(=CC=C1)S(=O)(=O)N2CCOCC2)/C3=C(C=CC(=C3)Cl)O
Method in brief: as §1

[2] = compound: C1=CC(=C(C=C1Cl)C2=NC3=NC=CN=C3C(=N2)NC4=CC=NC=C4)F
Method in brief: as §1

[3] = compound: C1=CC(=CC=C1C2=NC3=C(N2)C=C(C=C3)C(=O)N)OC4=CC=C(C=C4)Cl
Method in brief: as §1

[4] = compound: C1=CC2=C(C=CC(=C2)/C=C\3/C(=O)NC(=NCC4=CC=CS4)S3)N=C1
Method in brief: as §1

[5] = compound: C1=CC2=NC=CN=C2C=C1/C=C/3\C(=O)NC(=O)S3
Method in brief: as §1

[6] = compound: C1=CC=C(C=C1)C2=NC(=C(N2)C3=CC=NC=C3)C4=CC(=C(C=C4)Cl)O
Method in brief: as §1

[7] = compound: C1=CC=C2C(=C1)C3=NNC4=CC=CC(=C43)C2=O
Method in brief: as §1

[8] = compound: C1CCN(C1)C(=O)NC2=CC=CC(=C2)NC3=NC=C(C(=N3)NCCC4=CN=CN4)Br
Method in brief: as §1

[9] = compound: C1CN(CCC1(CC2=CC=C(C=C2)Cl)N)C3=NC=NC4=C3C=CN4
Method in brief: as §1

Measured: log2 fold change

YIPF6 (UniProt Q96EC8)
inactive: erlotinib -0.017 | [1] -0.067 | [2] 0.138 | [3] 0.005 | [4] 0.042 | [5] 0.025 | [6] -0.041 | [7] -0.018 | [8] -0.013 | [9] -0.015

YWHAZ (UniProt P63104)
inactive: erlotinib 0.011 | [1] 0.061 | [2] 0.081 | [3] 0.011 | [4] -0.154 | [5] -0.012 | [6] 0.096 | [7] 0.045 | [8] 0.011 | [9] 0.059

XRCC6 (UniProt P12956)
inactive: erlotinib 0.025 | [1] 0.103 | [2] 0.093 | [3] 0.011 | [4] 0.065 | [5] 0.031 | [6] -0.023 | [7] -0.036 | [8] -0.043 | [9] -0.025

ZBTB8OS (UniProt Q8IWT0)
inactive: erlotinib -0.045 | [1] 0.034 | [2] 0.067 | [3] -0.006 | [4] 0.09 | [5] 0.033 | [6] -0.069 | [7] 0.017 | [8] 0.063 | [9] -0.086

ZFYVE1 (UniProt Q9HBF4)
inactive: erlotinib -0.008 | [1] 0.07 | [2] 0.199 | [3] 0.016 | [4] 0.147 | [5] 0.074 | [6] -0.034 | [7] -0.004 | [8] 0.095 | [9] -0.076

Looked up one by one from the entries so far (2):
ZFYVE1 (UniProt Q9HBF4)
inactive: erlotinib -0.008 | [1] 0.07 | [2] 0.199 | [3] 0.016 | [4] 0.147 | [5] 0.074 | [6] -0.034 | [7] -0.004 | [8] 0.095 | [9] -0.076

ZBTB8OS (UniProt Q8IWT0)
inactive: erlotinib -0.045 | [1] 0.034 | [2] 0.067 | [3] -0.006 | [4] 0.09 | [5] 0.033 | [6] -0.069 | [7] 0.017 | [8] 0.063 | [9] -0.086

Next results follow:

YPEL5 (UniProt P62699)
inactive: erlotinib 0.049 | [1] 0.032 | [2] -0.028 | [3] -0.021 | [4] -0.021 | [5] -0.002 | [6] 0.213 | [7] -0.158

YLPM1 (UniProt P49750)
inactive: erlotinib 0.084 | [1] 0.03 | [2] 0.057 | [3] 0.033 | [4] 0.057 | [5] 0.046 | [6] -0.024 | [7] 0.02 | [8] -0.083 | [9] 0.102

YWHAB (UniProt P31946)
inactive: erlotinib 0.011 | [1] 0.005 | [2] 0.048 | [3] -0.012 | [4] 0.023 | [5] 0.023 | [6] -0.02 | [7] 0.001 | [8] 0.006 | [9] 0.028

ZBTB43 (UniProt O43298)
inactive: erlotinib 0.081 | [1] 0.02 | [2] -0.194 | [3] 0.037 | [4] -0.081 | [5] -0.054 | [6] -0.064 | [7] -0.161 | [8] -0.052 | [9] -0.053

YRDC (UniProt Q86U90)
inactive: erlotinib 0.076 | [1] 0.02 | [2] 0.044 | [3] 0.002 | [4] 0.069 | [5] 0 | [6] 0.06 | [7] 0 | [8] -0.033 | [9] -0.021

YWHAH (UniProt Q04917)
inactive: erlotinib -0.036 | [1] -0.001 | [2] -0.194 | [3] 0.01 | [4] -0.033 | [5] 0.016 | [6] 0.024 | [7] -0.005 | [8] -0.034 | [9] 0.015

ZDHHC14 (UniProt Q8IZN3)
inactive: erlotinib -0.004 | [1] 0.051 | [2] 0.025 | [3] 0.077 | [4] 0.026 | [5] -0.005 | [6] 0.036 | [7] -0.166 | [8] 0.058 | [9] -0.1

ZMIZ2 (UniProt Q8NF64)
inactive: erlotinib 0.076 | [1] -0.125 | [2] -0.05 | [3] -0.015 | [4] 0.142 | [5] 0.039 | [6] -0.025 | [7] -0.054 | [8] 0.055 | [9] 0.184

YES1 (UniProt P07947)
inactive: erlotinib -0.145 | [1] 0.072 | [2] -0.179 | [3] 0.049 | [4] 0.094 | [5] -0.09 | [6] -0.112 | [7] -0.153 | [8] -0.139 | [9] -0.059

ZNF143 (UniProt P52747)
inactive: erlotinib 0.021 | [1] 0.127 | [2] -0.058 | [3] 0.039 | [4] -0.028 | [5] 0.045 | [6] 0.093 | [7] -0.077 | [8] -0.058 | [9] 0.085

YIF1B (UniProt Q5BJH7)
inactive: erlotinib 0.062 | [1] -0.059 | [2] -0.054 | [3] -0.009 | [4] 0.066 | [5] -0.004 | [6] -0.006 | [7] 0.015 | [8] 0.004 | [9] 0.016

ZNF24 (UniProt P17028)
inactive: erlotinib -0.061 | [1] -0.009 | [2] -0.345 | [3] 0.001 | [4] -0.064 | [5] -0.022 | [6] -0.022 | [7] -0.049 | [8] -0.052 | [9] -0.072

YBX3 isoform 2 (UniProt P16989)
inactive: erlotinib -0.089 | [1] -0.506 | [2] -0.406 | [3] 0.017 | [4] -0.236 | [5] 0.007 | [6] -0.229 | [7] -0.303 | [8] 0.135 | [9] -0.084

ZMIZ1 (UniProt Q9ULJ6)
inactive: erlotinib -0.007 | [1] 0.036 | [2] -0.01 | [3] -0.036 | [4] 0.009 | [5] 0.038 | [6] -0.063 | [7] 0.002 | [8] -0.038 | [9] 0.049

YY1 (UniProt P25490)
inactive: erlotinib -0.019 | [1] 0.072 | [2] 0.073 | [3] 0.03 | [4] -0.014 | [5] 0.004 | [6] -0.053 | [7] -0.07 | [8] -0.065 | [9] 0.066

YAE1 (UniProt Q9NRH1)
inactive: erlotinib 0.055 | [1] -0.051 | [2] 0.007 | [3] 0 | [4] -0.018 | [5] -0.037 | [6] -0.015 | [7] -0.048 | [8] -0.084 | [9] -0.022

ZFAND6 (UniProt Q6FIF0)
inactive: erlotinib 0.024 | [1] -0.075 | [2] -0.05 | [3] 0.003 | [4] 0.077 | [5] 0.007 | [6] -0.006 | [7] -0.055 | [8] -0.058 | [9] 0.038

ZC3HAV1 (UniProt Q7Z2W4)
inactive: erlotinib 0.035 | [1] -0.009 | [2] -0.474 | [3] 0.045 | [4] -0.041 | [5] -0.071 | [6] -0.142 | [7] 0.065 | [8] -0.046 | [9] -0.012

YWHAG (UniProt P61981)
inactive: erlotinib 0.012 | [1] 0 | [2] 0.077 | [3] -0.01 | [4] -0.145 | [5] -0.024 | [6] 0.038 | [7] 0.02 | [8] -0.009 | [9] 0.056

YBX3 (UniProt P16989)
inactive: erlotinib -0.141 | [1] -0.125 | [2] -0.327 | [3] 0.041 | [4] -0.058 | [5] -0.013 | [6] -0.074 | [7] -0.023 | [8] 0.099 | [9] -0.108

YKT6 (UniProt O15498)
inactive: erlotinib 0.013 | [1] 0.003 | [2] 0.054 | [3] -0.031 | [4] 0.013 | [5] 0.031 | [6] -0.024 | [7] -0.012 | [8] 0.019 | [9] 0.014

ZC2HC1A (UniProt Q96GY0)
inactive: erlotinib 0.057 | [1] -0.075 | [2] -0.013 | [3] -0.052 | [4] 0.014 | [5] 0.023 | [6] 0.205 | [7] -0.057 | [8] -0.2 | [9] 0.066

ZNF207 isoform 4 (UniProt O43670)
inactive: erlotinib -0.016 | [1] 0.022 | [2] 0.035 | [3] 0.005 | [4] -0.084 | [5] -0.014 | [6] 0.006 | [7] 0.026 | [8] -0.028 | [9] -0.06

ZFAND2B (UniProt Q8WV99)
inactive: erlotinib 0.079 | [1] 0.075 | [2] -0.017 | [3] 0.018 | [4] 0.002 | [5] 0.011 | [6] -0.02 | [7] -0.06 | [8] -0.053 | [9] 0.027

ZNF217 (UniProt O75362)
inactive: erlotinib 0.001 | [1] 0.074 | [2] 0.168 | [3] 0.015 | [4] 0.007 | [5] 0.007 | [6] -0.014 | [7] 0.03 | [8] 0.01 | [9] 0.197
